Experimental data reported in doi:10.1101/2022.12.14.520480.

Target: T1, HA-TBC1D15 wild type (UniProt Q8TC07)
T1 sequence: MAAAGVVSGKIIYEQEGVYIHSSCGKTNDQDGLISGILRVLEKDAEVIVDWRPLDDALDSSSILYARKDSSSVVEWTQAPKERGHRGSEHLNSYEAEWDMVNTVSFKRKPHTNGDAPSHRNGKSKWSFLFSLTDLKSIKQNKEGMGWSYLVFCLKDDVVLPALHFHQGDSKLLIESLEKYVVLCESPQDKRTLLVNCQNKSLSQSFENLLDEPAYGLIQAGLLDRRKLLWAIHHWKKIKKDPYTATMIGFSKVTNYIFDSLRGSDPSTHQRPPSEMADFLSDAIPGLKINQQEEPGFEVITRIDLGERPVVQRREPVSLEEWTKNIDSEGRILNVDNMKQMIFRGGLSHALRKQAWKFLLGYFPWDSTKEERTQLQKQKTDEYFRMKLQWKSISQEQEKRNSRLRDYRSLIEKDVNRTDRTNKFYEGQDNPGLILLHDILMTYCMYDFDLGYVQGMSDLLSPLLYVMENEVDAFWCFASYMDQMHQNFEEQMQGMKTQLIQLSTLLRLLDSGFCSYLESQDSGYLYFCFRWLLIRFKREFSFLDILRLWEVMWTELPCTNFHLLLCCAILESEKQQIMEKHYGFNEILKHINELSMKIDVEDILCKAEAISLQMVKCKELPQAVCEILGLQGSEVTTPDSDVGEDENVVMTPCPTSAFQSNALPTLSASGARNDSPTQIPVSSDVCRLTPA
Assay: affinity purification with mass spectrometry

binding: binds
Substance: Clathrin heavy chain CLTC (endogenous) (from UniProt Q00610 1-1675)

Results are given in words; binding and its absence hold for the method and conditions named. Binding seen in cells or lysates may run through a third protein. These calls come from enrichment with a bait or labelling near it, and not all partners need be listed. Sequences can lack the tags named with a protein.
